Measurements: patent US20230312741A1
No constants are given. Whether binding was seen depends on the method and setting. Some binding calls cover weakened binding; strength is not graded here.

T1: CD73 mutant E224A/K227A (human) (UniProt P21589)
T1 sequence: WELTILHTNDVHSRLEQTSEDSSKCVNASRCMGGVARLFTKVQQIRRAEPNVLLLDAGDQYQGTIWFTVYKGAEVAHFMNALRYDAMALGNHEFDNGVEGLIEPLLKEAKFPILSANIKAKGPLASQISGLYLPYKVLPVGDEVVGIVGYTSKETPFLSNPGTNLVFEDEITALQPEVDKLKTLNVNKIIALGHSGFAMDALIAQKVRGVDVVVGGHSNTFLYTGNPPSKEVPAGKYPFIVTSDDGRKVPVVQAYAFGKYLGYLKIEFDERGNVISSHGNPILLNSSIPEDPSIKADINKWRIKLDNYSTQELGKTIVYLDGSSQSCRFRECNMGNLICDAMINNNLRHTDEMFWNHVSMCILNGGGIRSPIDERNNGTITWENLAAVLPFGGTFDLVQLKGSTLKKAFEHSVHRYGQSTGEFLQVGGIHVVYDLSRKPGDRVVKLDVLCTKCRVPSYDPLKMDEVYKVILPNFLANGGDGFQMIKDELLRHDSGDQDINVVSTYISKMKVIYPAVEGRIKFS

T2: CD73 mutant F183A/L184A/N186A (human) (UniProt P21589)
T2 sequence: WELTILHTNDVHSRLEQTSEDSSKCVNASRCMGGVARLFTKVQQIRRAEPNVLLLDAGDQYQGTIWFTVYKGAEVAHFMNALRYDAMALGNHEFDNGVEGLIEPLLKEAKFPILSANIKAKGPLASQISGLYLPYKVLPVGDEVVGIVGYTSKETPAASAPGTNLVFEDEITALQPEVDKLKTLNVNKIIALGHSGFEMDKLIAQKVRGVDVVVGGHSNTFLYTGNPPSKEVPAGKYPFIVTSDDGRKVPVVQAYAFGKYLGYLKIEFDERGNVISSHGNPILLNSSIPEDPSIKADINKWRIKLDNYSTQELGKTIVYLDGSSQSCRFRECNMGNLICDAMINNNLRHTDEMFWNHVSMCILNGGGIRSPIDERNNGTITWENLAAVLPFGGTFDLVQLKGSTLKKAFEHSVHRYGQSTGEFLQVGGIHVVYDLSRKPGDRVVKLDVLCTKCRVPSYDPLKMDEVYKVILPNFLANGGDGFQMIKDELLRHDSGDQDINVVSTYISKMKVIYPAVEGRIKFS

T3: CD73 mutant K145A/K147A (human) (UniProt P21589)
T3 sequence: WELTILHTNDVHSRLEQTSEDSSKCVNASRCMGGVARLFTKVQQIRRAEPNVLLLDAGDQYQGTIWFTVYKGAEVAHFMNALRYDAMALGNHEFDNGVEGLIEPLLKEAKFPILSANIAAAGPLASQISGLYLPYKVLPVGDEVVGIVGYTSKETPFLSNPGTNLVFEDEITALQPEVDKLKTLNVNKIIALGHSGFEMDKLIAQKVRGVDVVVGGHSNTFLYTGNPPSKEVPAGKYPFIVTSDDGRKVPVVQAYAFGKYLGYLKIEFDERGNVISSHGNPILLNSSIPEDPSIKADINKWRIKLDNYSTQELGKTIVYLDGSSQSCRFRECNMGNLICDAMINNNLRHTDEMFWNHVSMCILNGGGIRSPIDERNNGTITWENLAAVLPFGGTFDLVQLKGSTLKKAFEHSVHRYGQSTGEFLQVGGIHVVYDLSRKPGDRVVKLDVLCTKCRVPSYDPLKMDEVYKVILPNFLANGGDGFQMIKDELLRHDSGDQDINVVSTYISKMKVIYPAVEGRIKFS

T4: CD73 mutant R109A/K136A/E134A (human) (UniProt P21589)
T4 sequence: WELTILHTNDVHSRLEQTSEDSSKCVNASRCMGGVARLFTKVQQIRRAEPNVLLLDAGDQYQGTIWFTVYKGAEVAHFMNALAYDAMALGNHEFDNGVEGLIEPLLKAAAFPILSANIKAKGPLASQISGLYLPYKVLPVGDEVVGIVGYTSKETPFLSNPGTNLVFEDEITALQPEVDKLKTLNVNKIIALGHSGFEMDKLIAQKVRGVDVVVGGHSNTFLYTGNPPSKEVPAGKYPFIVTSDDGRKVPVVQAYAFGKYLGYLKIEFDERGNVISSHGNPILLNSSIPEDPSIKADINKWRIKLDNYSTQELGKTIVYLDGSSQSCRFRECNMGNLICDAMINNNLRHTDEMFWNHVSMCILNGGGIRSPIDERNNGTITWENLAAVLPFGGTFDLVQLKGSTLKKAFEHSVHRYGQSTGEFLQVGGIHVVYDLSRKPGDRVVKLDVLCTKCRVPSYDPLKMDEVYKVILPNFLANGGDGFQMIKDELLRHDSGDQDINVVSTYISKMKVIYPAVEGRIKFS

T5: CD73 mutant S152A/Q153A (human) (UniProt P21589)
T5 sequence: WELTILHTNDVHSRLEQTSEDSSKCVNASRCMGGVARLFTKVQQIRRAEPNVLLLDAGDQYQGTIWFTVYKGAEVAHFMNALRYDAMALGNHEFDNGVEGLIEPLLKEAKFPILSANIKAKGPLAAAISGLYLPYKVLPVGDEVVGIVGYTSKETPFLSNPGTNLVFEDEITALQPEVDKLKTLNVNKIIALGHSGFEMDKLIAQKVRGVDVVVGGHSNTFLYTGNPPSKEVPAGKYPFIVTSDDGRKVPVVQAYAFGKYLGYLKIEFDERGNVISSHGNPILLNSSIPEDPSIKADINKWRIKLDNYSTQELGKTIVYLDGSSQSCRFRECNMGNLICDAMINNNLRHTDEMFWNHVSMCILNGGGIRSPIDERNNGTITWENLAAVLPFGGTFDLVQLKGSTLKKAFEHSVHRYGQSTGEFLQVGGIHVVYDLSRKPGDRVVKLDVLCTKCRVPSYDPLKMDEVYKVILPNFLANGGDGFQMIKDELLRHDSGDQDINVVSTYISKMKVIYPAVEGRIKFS


How the values were obtained:
Test in all cases: flow cytometry, GS-CHO cells with CD73 mutant
[1] = biological target: T1, CD73 mutant E224A/K227A (human)
[2] = biological target: T2, CD73 mutant F183A/L184A/N186A (human)
[3] = biological target: T3, CD73 mutant K145A/K147A (human)
[4] = biological target: T4, CD73 mutant R109A/K136A/E134A (human)
[5] = biological target: T5, CD73 mutant S152A/Q153A (human)

binding [1]	binding [2]	binding [3]	binding [4]	binding [5]	Binder
binds	binds	binds	binds	binds	ADI-37505 (antibody, human IgG4 S228P, kappa, F234A L235A, V domains shown) VH: QVQLVESGGGLVQPGGSLRLSCAASGFTFSNYAMTWVRQAPGKGLEWVSAISGRGTATYYADSVKGRFTISRDNSKNTLYLQMNSLRAEDTAVYYCARGGPYGSGSYWDTFDYWGQGTLVTVSS VL: EIVMTQSPATLSVSPGERATLSCRASQSVSSNLAWYQQKPGQAPRLLIYGASTRATGIPARFSGSGSGTEFTLTISSLQSEDFAVYYCQQYTNHYTFGGGTKVEIKR
binds	binds	binds	binds	binds	ADI-37506 (antibody, human IgG4 S228P, kappa, F234A L235A, V domains shown) VH: EVQLLESGGGLVQPGGSLRLSCAASGFTFSNLAMSWVRQAPGKGLEWVSAISGRATSTYYADSVKGRFTISRDNSKNTLYLQMNSLRAEDTAVYYCARGGPYGSGSYWDTFDYWGQGTLVTVSS VL: EIVMTQSPATLSVSPGERATLSCRASQSVSSNLAWYQQKPGQAPRLLIYGASTRATGIPARFSGSGSGTEFTLTISSLQSEDFAVYYCQQYTNHYTFGGGTKVEIKR
